PubChem BioAssay AID588590 (National Center for Advancing Translational Sciences (NCATS), 2011)
Screen size: about 390,000 compounds; about 4,000 (1%) were called active. The inconclusive results got no clear call from the source; some entries with a clear call stand among them for comparison. The call rests on the fitted dose curve; in most records, active means well fitted inhibition curve with a large enough effect; inconclusive means small, poorly fitted or top-dose-only effect, or another doubt; inactive means no such curve, though single readings can be large or run the other way. Potencies beside an inconclusive call are fits to weak or partial responses and may not hold up.

Protein sequences, listed by entry. Tags and fused reporters are not part of them. Lines headed by an entry give the natural chain unless they say otherwise; changes in a name come on top.
UniProt Q9UNA4: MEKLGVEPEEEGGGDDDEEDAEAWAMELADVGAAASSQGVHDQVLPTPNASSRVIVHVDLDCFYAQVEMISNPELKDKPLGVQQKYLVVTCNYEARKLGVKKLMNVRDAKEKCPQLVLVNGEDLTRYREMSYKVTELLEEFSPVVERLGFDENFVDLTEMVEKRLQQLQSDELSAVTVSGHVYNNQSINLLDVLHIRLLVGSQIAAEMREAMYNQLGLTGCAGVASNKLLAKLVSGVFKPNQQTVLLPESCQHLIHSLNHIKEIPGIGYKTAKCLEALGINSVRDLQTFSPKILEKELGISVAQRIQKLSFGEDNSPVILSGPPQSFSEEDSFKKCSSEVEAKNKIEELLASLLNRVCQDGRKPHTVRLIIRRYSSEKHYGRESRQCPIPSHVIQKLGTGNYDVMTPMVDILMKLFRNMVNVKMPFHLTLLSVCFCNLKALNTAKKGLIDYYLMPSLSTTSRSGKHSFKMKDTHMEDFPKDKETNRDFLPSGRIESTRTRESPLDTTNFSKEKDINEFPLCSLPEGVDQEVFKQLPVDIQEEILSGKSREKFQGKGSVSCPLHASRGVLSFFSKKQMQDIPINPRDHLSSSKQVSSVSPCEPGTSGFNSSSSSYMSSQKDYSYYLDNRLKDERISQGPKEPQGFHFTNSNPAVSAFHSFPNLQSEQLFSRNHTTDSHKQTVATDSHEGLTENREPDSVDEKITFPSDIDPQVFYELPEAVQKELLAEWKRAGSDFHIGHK

Target: DNA polymerase iota (Homo sapiens) (UniProt Q9UNA4)
Assay: qHTS for Inhibitors of Polymerase Iota
Details: Pol iota fluorescent replication assay, 10 min; series mostly up to 115 µM
Text: DNA polymerases, such as Pol iota, are specifically involved in DNA repair. Pol iota specifically plays an important role in translesion synthesis, where the normal high-fidelity DNA polymerases cannot proceed and DNA synthesis stalls. […] Thus, while pol eta's (and most likely iota's) normal function is to protect humans against the deleterious consequences of DNA damage, under certain conditions they can have deleterious effects on human health. As a consequence, we propose to utilize a high throughput replication assay to identify small molecule inhibitors of pol iota.
In a collaboration between the National Institute of Child Health & Human Development (NICHD) and NIH Chemical Genomics Center, a high-throughput, fluorescent screen was developed to screen the NIH Molecular Libraries Small Molecule Repository (MLSMR). This screen is used to identify inhibitors of pol iota.
NIH Chemical Genomics Center [NCGC]
NIH Molecular Libraries Probe Centers Network [MLPCN]
Assay Submitter (PI): Roger Woodgate, NICHD)
Three microliters of reagents (buffer in column 3 and 4 as negative control and 10 nM Pol iota in columns 1, 2, and 5-48) will be dispensed into 1,536-well black solid-bottomed plate. Compounds (23 nL) will be transferred via Kalypsys pin tool equipped with 1536-pin array. The plates will then be incubated for 15 min at room temperature, and 1 µL substrate (50 nM final concentration) will be added to start the reaction and kinetically read twice at 0 min and 10 min on the Viewlux reader.
Potency means the concentration at half of the fitted maximal effect.

Row | SMILES | Potency
1 | COC(=O)/C=C/c1ccc2c(c1)S(=O)(=O)N(c1cccc(OC)c1)[C@H]2CC(=O)OC | inconclusive: 39.8 µM [inhibitor, single point]
2 | COc1cc2c(NC3CCN(C)CC3)nc(N3CCCN(C)CC3)nc2cc1OCCOCCN1CCCC1 | inactive
3 | O=C(C1CCN(c2nnc(N3CCCC3=O)s2)CC1)N1CCN(Cc2ccc3c(c2)OCO3)CC1 | inconclusive: 25.1 µM [inhibitor, single point]
4 | Cc1onc(-c2ccccc2)c1C(=O)NC(=S)Nc1sc2c(c1C#N)CCCC2 | inconclusive: 39.8 µM [inhibitor, partial curve, poor fit]
5 | CCOC(=O)c1cc(C)n(CC2CCC(C(=O)Nc3cccc(Cl)c3)CC2)c1C (centres undefined) | inconclusive: 79.4 µM [inhibitor, single point]
6 | Cc1cc(C)cc(NC(=O)CSc2ccc(-c3ccco3)nn2)c1 | inactive
7 | Cc1cc(=O)[nH]c2ccccc12 | inactive
8 | COC(=O)CSc1nnc(Cc2cc(=O)[nH]c(=O)[nH]2)n1-c1cccc(OC)c1 | inconclusive: 112 µM [inhibitor, single point]
9 | O=C(NCc1cccnc1)c1ccc(COc2cccc3ccccc23)o1 | inconclusive: 31.6 µM [inhibitor, single point]
10 | Cn1c(-c2ccc3c(c2)OCO3)cnc1NCc1ccccc1 | inconclusive: 14.1 µM [inhibitor, partial curve]
11 | COc1cc(CCc2ccccc2)c(C(=O)O)c(O)c1C/C=C(/C)CCC=C(C)C | inconclusive: 1 µM [inhibitor, full curve, poor fit]
12 | Cc1cc(/C=C2\C(=N)N3N=C(c4ccco4)SC3=NC2=O)c(C)n1Cc1ccccc1 | active: 20 µM
13 | Cc1nnc(-c2cnn(C)c2N)n1Cc1ccc2c(c1)OCO2 | inconclusive: 89.1 µM [inhibitor, single point]
14 | CC(=O)Nc1ccc(S(=O)(=O)Nc2ccccc2N2CCOCC2)cc1 | inconclusive: 1 µM [inhibitor, partial curve, poor fit]
15 | CC(Sc1nc2ccccc2c(=O)n1C)C(=O)NC1CCCCC1C (centres undefined) | inconclusive: 79.4 µM [inhibitor, partial curve, poor fit]
16 | COc1ccc(/C=N/NC(=O)CCC(=O)Nc2ccccc2)cc1OC | inconclusive: 39.8 µM [inhibitor, partial curve, poor fit]
17 | N#Cc1ccc(/C=C2\CCn3c2nc2cc(C(=O)O)ccc2c3=O)cc1 | inconclusive: 50.1 µM [inhibitor, partial curve, poor fit]
18 | O=C(O)CSc1cc(C(=O)c2ccccc2O)cn2c(=O)c3c(-c4ccccc4)csc3nc12 | inconclusive: 50.1 µM [inhibitor, partial curve, poor fit]
19 | CCCc1c(C)c2c(C)[nH]nc2oc1=O | inconclusive: 17.8 µM [inhibitor, partial curve, poor fit]
20 | O=C(NCc1ccco1)C(c1cccs1)N(C(=O)C1COc2ccccc2O1)c1cccc(O)c1 (centres undefined) | inconclusive: 31.6 µM [inhibitor, single point]
21 | COc1ccc(C(=O)N/N=C(\C)Cn2nc([N+](=O)[O-])cc2C)cc1 | inactive
22 | COc1ccc(/C=N/Nc2ncnc3sc4c(c23)CCCC4)cc1O | inconclusive: 2.24 µM [inhibitor, full curve, poor fit]

Reprinted, entries 15 to 17
Row | SMILES | Potency
15 | CC(Sc1nc2ccccc2c(=O)n1C)C(=O)NC1CCCCC1C (centres undefined) | inconclusive: 79.4 µM [inhibitor, partial curve, poor fit]
16 | COc1ccc(/C=N/NC(=O)CCC(=O)Nc2ccccc2)cc1OC | inconclusive: 39.8 µM [inhibitor, partial curve, poor fit]
17 | N#Cc1ccc(/C=C2\CCn3c2nc2cc(C(=O)O)ccc2c3=O)cc1 | inconclusive: 50.1 µM [inhibitor, partial curve, poor fit]

Later entries:

Row | SMILES | Potency
23 | COc1ccccc1CCN1COc2c(cc3c(C)c(C)c(=O)oc3c2C)C1 | inactive
24 | COC1=C/C(=C/c2c(N)n3cc(C)sc3nc2=O)C=CC1=O | inactive
25 | Clc1cccc(Cl)c1/C=C/c1ccn[nH]1 | inconclusive: 7.94 µM [inhibitor, partial curve, poor fit]
26 | CCOC(=O)N1CCN(CC(=O)c2c(C)[nH]c3ccccc23)CC1 | inconclusive: 12.6 µM [inhibitor, partial curve]
27 | CC[C@H](C)NC(=O)c1ccc(Cn2c(=S)[nH]c3c([nH]c4ccc(OC)cc43)c2=O)cc1 | inconclusive: 112 µM [inhibitor, single point]
28 | C=CCn1c(C)cc(C(=O)COC(=O)c2ccc3c(c2)NC(=O)CS3)c1C | inconclusive: 56.2 µM [inhibitor, partial curve, poor fit]
29 | O=C(O)c1occc1CSc1ccccc1 | inactive
30 | CN=c1scc(-c2ccco2)n1/N=C/c1ccc(O)c(O)c1 | inconclusive: 7.08 µM [inhibitor, partial curve, poor fit]
31 | O=C(CCN1C(=O)C2CC=C(Cl)CC2C1=O)NCc1ccco1 (centres undefined) | inactive
32 | O=C(c1ccc(N2CCCC2=O)cc1)N1CCN(c2ccccc2O)CC1 | inconclusive: 89.1 µM [inhibitor, partial curve, poor fit]
33 | CC(C)(C)C(=O)Nc1ccc(NC(=O)c2ccco2)nc1 | inconclusive: 89.1 µM [inhibitor, single point]
34 | OCCNc1nc(-c2ccccc2)c2ccccc2n1 | inconclusive: 89.1 µM [inhibitor, single point]
35 | Cc1ccc(CS(=O)Cc2ccc(C(=O)NCc3ccc4c(c3)OCO4)o2)cc1 (centres undefined) | inactive
36 | CCn1c(=O)c2cc(C(=O)NCCCN3CCN(c4ccc(F)cc4)CC3)sc2c2ccccc21 | inactive
37 | COc1ccc(OC)c(C2Nc3c(C)cc(C)cc3-c3cc(C)nn32)c1 (centres undefined) | inactive
38 | S=c1[nH]nc(COc2ccccc2)n1/N=C/C=C/c1ccco1 | inconclusive: 14.1 µM [inhibitor, partial curve, poor fit]
39 | O=C(c1ccco1)N1CCCC(c2nc3c(nnn3Cc3ccccc3)c(=O)[nH]2)C1 (centres undefined) | inconclusive: 100 µM [inhibitor, partial curve, poor fit]
40 | CCOC(=O)c1csc(NC(=O)C2CCCCC2)n1 | inconclusive: 39.8 µM [inhibitor, single point]
41 | CCOc1ccc(NC(=S)NC(=O)Cc2ccccc2)cc1 | inconclusive: 44.7 µM [inhibitor, partial curve, poor fit]
42 | Oc1cccc(/C=N/N=C/c2cccc(O)c2O)c1O | inconclusive: 1.78 µM [inhibitor, full curve, poor fit]
43 | CCNC(=O)OCCC12CC3CC(CC(C3)C1)C2 | inactive
44 | CCCn1c(SCC(=O)NCCc2ccccc2)nnc1-c1cccnc1 | inconclusive: 25.1 µM [inhibitor, partial curve, poor fit]

Row | SMILES | Potency
45 | O=[N+]([O-])c1ccccc1OC/C(=N\O)c1ccccc1 | inconclusive: 89.1 µM [inhibitor, single point]
46 | CCN1CSC(=S)N(Cc2ccc(OC)cc2)C1 | inconclusive: 0.631 µM [inhibitor, full curve, poor fit]
47 | Cc1ccc(S(=O)(=O)Nc2ccc(O)c3ccccc23)c(C)c1 | inconclusive: 15.8 µM [inhibitor, full curve, poor fit]
48 | CC(=O)COC(=O)C1CC(=O)N(c2ccc(C)c(C)c2)C1 (centres undefined) | inconclusive: 15.8 µM [inhibitor, full curve, poor fit]
49 | COc1ccc2c(CC(=O)NCc3ccc4c(c3)OCO4)coc2c1 | inconclusive: 1.12 µM [inhibitor, full curve, poor fit]
50 | Cc1ccc(NC(=O)c2ccc(NCCCN3CCC(C)CC3)c([N+](=O)[O-])c2)cc1F | inconclusive: 56.2 µM [inhibitor, partial curve, poor fit]
51 | N=C1/C(=C\c2ccc(SCc3ccco3)o2)C(=O)N=C2SC=NN12 | inconclusive: 63.1 µM [inhibitor, partial curve, poor fit]
52 | Cc1ccc2c(c1)N(Cc1cccc(C#N)c1)C=NS2(=O)=O | inconclusive: 79.4 µM [inhibitor, single point]
53 | CC(C)COCC(CN(Cc1ccccc1)c1ccccc1)N1CCCC1 (centres undefined) | inconclusive: 0.0447 µM [inhibitor, full curve, poor fit]
54 | Cc1nn(CC(=O)O)c(C)c1N | inconclusive: 70.8 µM [inhibitor, partial curve, poor fit]
55 | Cc1ccc(/C=c2\sc3nc(-c4ccccc4Br)nn3c2=O)o1 | inconclusive: 10 µM [inhibitor, full curve, poor fit]
56 | NC(=O)CC(NC(=O)Cc1cccc2ccccc12)c1ccc(NCCCN2CCCC2=O)c([N+](=O)[O-])c1 (centres undefined) | inconclusive: 79.4 µM [inhibitor, partial curve, poor fit]
57 | Cn1nc(C(C)(C)C)cc1C(=O)Nc1nc2c(s1)C(=O)CC(C)(C)C2 | inconclusive: 70.8 µM [inhibitor, partial curve, poor fit]
58 | COc1cc(C(CCN2CCCC2)c2c(OC)cc(OC)c3ccc(=O)oc23)cc(OC)c1OC (centres undefined) | inactive
59 | COc1ccc(C2CC(c3ccccc3)Oc3ccc(C(C)(C)C)cc32)cc1 (centres undefined) | inactive
60 | CC(C)(C)OC(=O)[C@H](Cc1ccccc1)NC(=O)c1[nH]cnc1C(=O)Nc1cccc(Cl)c1 | inconclusive: 35.5 µM [inhibitor, single point]
61 | COc1ccccc1NC1=C(N2CCCCC2)C(=O)c2ccccc2C1=O | inconclusive: 11.2 µM [inhibitor, full curve]
62 | CCc1ccc(NS(=O)(=O)c2ccc(-c3cc(C)no3)cc2)cc1 | inactive
63 | O=C(/C=C/c1ccc2c(c1)OCO2)c1cccnc1 | inconclusive: 15.8 µM [inhibitor, partial curve, poor fit]
64 | Cc1c(N=c2scc(-c3ccccc3)n2C)c(=O)n(-c2ccccc2)n1C | inconclusive: 7.08 µM [inhibitor, partial curve, poor fit]
